In PubChem BioAssay AID651640 (Broad Institute, 2012):
Screen size: about 350,000 compounds; about 6,000 (1.7%) were called active. Inconclusive means that the source gave no clear call. Such entries were picked first, then a sample of the others. Rule as the data show it: active = CPE inhibition above about 20% (passing the limit was not always enough); inconclusive = no clear call, values can overlap the other calls; tested in BHK-21 cells. Some compounds were tested as several samples or in several runs, with calls that do not always agree.

Assay: protection of cells from dengue 2 killing – plate reader, single concentration, primary screen (AID 651640);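 also: 0% = median of neutral control wells and 100% = median of positive control wells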
Settings: DENV2-infected cells, cytopathic effect rescue, at 9.99 µM, active compounds read high

SMILES | CPE inhibition
CN(C)C(=O)c1cccc(-c2ccc3c(c2)[C@H]2[C@H](CCN2C(=O)c2cnccn2)[C@H](CO)N3)c1 | inconclusive: 80.1%
CC(C)NC(=O)N(C)C[C@H]1Oc2ccc(NC(=O)Cc3ccccc3)cc2C(=O)N([C@H](C)CO)C[C@@H]1C | active: 51.8%
Cc1cnc(NC(=O)c2ccc3c(c2)OCCO3)s1 | inactive: -2.19%
O=c1c2c(nc3c(-c4ccc(Cl)cc4)c[nH]n13)CCC2 | inconclusive: 24.2%
CCOc1ccc(S(=O)(=O)Nc2cccc(C(=O)NCCCn3ccnc3)c2)cc1 | inconclusive: 38.7%
C[C@@H]1CN([C@@H](C)CO)C(=O)c2cc(NC(=O)c3ccncc3)ccc2O[C@@H]1CN(C)C(=O)Nc1ccc(F)cc1 | inactive: -1.01%
O=c1cc(-c2cccc(F)c2)[nH]c2ccccc12 | active: 36%
Cc1cc(NO)c(C(C)C)cc1N=O | inactive: -1.72%
O=C(COC(=O)C1CC(=O)N(Cc2ccco2)C1)Nc1ccc(F)cc1F (stereo not given) | active: 74.2%
COc1ccc(S(=O)(=O)Nc2ccc3c(c2)C(=O)N([C@@H](C)CO)C[C@@H](C)[C@@H](CN(C)Cc2ccc4c(c2)OCO4)OCCCC[C@H](C)O3)cc1 | active: 22%
O=c1[nH][nH]c2c1C(c1ccc(Cl)c(Cl)c1)OC(CCc1ccccc1)C2 (stereo not given) | inconclusive: 30%
Cc1cccc(S(=O)(=O)N2CCCCN3[C@H](CO)[C@@H](c4ccc(-c5cccnc5)cc4)[C@@H]3C2)c1 | inactive: -2.14%
COc1ccc(CN(C)C[C@H]2Oc3c(NS(=O)(=O)c4cn(C)cn4)cccc3C(=O)N([C@@H](C)CO)C[C@@H]2C)cc1 | inconclusive: 41.4%
CCCNC(=O)N1C[C@@H](O)COC[C@H]2O[C@H](CC(=O)N3CCOCC3)CC[C@@H]21 | inactive: -8.92%
Cc1ccc(NC(=O)COC(=O)c2cc(=O)c3cc(F)ccc3o2)cc1 | inconclusive: 40.3%
COc1cc(CN(C)CC2CCCN(CCc3cccc(C(F)(F)F)c3)C2)ccc1O (stereo not given) | inconclusive: 25%
COCC(=O)Nc1ccc2c(c1)C(=O)N(C)[C@@H]1CC[C@@H](CC(=O)NC3CCCC3)O[C@H]1CO2 | inactive: -5.83%
COc1cccc(C#Cc2cnc3c(c2)C(=O)N([C@@H](C)CO)C[C@@H](C)[C@@H](CN(C)C(=O)C2CCC2)O3)c1 | active: 24.9%
COc1ccccc1NS(=O)(=O)c1ccc(C)c(NC(=O)c2ccc(S(=O)(=O)N3CCCCCC3)cc2)c1 | inconclusive: 48.9%
CCN1CCN(c2nc3c(c(=O)[nH]c(=O)n3C)n2CCCc2ccccc2)CC1 | inactive: -3.43%

Some of the entries so far, with each value named:
Cc1cnc(NC(=O)c2ccc3c(c2)OCCO3)s1
  CPE inhibition: inactive: -2.19%
O=c1c2c(nc3c(-c4ccc(Cl)cc4)c[nH]n13)CCC2
  CPE inhibition: inconclusive: 24.2%
